Data reported in article doi:10.1101/2024.11.26.625568.
No constants are given. Whether binding was seen depends on the method and setting. Some binding calls cover weakened binding; strength is not graded here.

Assays:
[1] = target: TPR domain of LGN (a.a. 1-409) (human) (UniProt P81274); experiment: mass photometry; single protein diluted to 5-20 nM in 50 mM HEPES pH 7.4, 150 mM NaCl, 1 mM EGTA, 10% glycerol; TwoMP mass photometer; both purified
[2] = target: T1, NuMA Bonsai (human) (UniProt Q14980); experiment: single-molecule comigration on microtubules (TIRF); labelled LGN added to DDN complexes (dynein, dynactin, NuMA FL or Bonsai, Lis1) moving on unlabeled MTs; both purified
T1 sequence: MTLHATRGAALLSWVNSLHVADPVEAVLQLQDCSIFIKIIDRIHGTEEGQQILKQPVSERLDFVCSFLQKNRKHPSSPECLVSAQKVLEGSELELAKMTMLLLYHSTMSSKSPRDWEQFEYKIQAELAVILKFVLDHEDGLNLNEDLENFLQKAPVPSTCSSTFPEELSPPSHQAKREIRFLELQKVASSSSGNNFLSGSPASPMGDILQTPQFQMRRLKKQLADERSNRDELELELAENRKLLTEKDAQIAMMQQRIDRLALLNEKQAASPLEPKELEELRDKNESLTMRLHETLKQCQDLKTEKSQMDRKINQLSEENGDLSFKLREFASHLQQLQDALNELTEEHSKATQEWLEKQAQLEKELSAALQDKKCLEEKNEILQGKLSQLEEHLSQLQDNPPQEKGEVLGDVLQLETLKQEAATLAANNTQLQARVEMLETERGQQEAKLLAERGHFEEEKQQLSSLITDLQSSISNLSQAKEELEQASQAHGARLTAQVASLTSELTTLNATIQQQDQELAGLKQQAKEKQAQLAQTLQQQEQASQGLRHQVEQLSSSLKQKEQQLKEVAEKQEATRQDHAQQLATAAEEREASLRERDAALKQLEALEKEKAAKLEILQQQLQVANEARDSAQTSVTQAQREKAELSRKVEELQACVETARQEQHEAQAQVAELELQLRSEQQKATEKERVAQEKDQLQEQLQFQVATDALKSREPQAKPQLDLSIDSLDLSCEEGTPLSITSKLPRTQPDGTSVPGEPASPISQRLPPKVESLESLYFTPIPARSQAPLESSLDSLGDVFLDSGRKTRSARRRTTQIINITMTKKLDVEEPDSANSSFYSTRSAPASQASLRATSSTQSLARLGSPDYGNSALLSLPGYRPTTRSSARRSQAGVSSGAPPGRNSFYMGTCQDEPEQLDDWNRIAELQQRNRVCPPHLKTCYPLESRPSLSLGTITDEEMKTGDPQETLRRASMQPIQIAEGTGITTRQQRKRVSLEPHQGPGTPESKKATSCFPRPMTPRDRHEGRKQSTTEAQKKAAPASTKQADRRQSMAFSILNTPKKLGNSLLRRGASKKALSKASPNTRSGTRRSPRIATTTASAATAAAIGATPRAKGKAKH

[3] = target: Full-length NuMA (human) (UniProt Q14980); experiment: as above
[4] = target: Full-length NuMA (human) (UniProt Q14980); experiment: three-colour TIRF imaging on surface-immobilised microtubules; LD655-labelled LGN (470 nM) with or without NuMA-mNG, mixed 3 min on ice, flowed over immobilised Cy3 MTs; both purified
[5] = target: T2, NuMA C (human), Q14980; experiment: mass photometry; single protein diluted to 5-20 nM in 50 mM HEPES pH 7.4, 150 mM NaCl, 1 mM EGTA, 10% glycerol; TwoMP mass photometer; both purified; settings: remark: other sources report otherwise
T2 chain: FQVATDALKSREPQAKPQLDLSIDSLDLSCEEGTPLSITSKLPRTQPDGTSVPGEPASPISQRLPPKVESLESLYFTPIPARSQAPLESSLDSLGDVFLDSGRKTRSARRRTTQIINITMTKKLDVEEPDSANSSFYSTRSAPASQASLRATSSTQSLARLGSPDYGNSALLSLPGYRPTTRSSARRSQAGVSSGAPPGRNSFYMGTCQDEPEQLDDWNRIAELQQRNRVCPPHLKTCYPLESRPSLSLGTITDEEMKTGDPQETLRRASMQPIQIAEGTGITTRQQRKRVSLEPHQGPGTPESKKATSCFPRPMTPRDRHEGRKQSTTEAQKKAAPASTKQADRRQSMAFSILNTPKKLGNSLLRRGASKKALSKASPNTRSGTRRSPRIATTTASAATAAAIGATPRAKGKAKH

[6] = target: NuMA MTBD2 (human) (UniProt Q14980); experiment: as above

B1: TPR domain of LGN (a.a. 1-409) (domain or fragment, UniProt P81274 1-409)
chain: MEENLISMREDHSFHVRYRMEASCLELALEGERLCKSGDCRAGVSFFEAAVQVGTEDLKTLSAIYSQLGNAYFYLHDYAKALEYHHHDLTLARTIGDQLGEAKASGNLGNTLKVLGNFDEAIVCCQRHLDISRELNDKVGEARALYNLGNVYHAKGKSFGCPGPQDVGEFPEEVRDALQAAVDFYEENLSLVTALGDRAAQGRAFGNLGNTHYLLGNFRDAVIAHEQRLLIAKEFGDKAAERRAYSNLGNAYIFLGEFETASEYYKKTLLLARQLKDRAVEAQSCYSLGNTYTLLQDYEKAIDYHLKHLAIAQELNDRIGEGRACWSLGNAYTALGNHDQAMHFAEKHLEISREVGDKSGELTARLNLSDLQMVLGLSYSTNNSIMSENTEIDSSLNGVRPKLGRRHSM
modifications: LD655 dye on the SNAP tag (unlabeled LGN in some assays)
- binding [1]: no binding (tested: 5–20 nM)
- binding [2]: binds
- binding [3]: binds
- binding [4]: binds

B2: NuMA C, Q14980 1700-2115 (domain or fragment)
chain: T2 chain
- binding [5]: no binding (tested: 5–20 nM)

B3: NuMA MTBD2 (domain or fragment, UniProt Q14980 2002-2115)
chain: ESKKATSCFPRPMTPRDRHEGRKQSTTEAQKKAAPASTKQADRRQSMAFSILNTPKKLGNSLLRRGASKKALSKASPNTRSGTRRSPRIATTTASAATAAAIGATPRAKGKAKH
- binding [6]: no binding (tested: 5–20 nM)
